Laboratory results from paper PMC4124013.
No constants are given. Whether binding was seen depends on the method and setting. In cells and extracts the contact can be indirect. Binding calls can cover weak binding; strength is not graded here.

Protein sequences, listed by entry. Tags and fused reporters are not part of them. Lines headed by an entry give the natural chain unless they say otherwise; changes in a name come on top.
UniProt P63331: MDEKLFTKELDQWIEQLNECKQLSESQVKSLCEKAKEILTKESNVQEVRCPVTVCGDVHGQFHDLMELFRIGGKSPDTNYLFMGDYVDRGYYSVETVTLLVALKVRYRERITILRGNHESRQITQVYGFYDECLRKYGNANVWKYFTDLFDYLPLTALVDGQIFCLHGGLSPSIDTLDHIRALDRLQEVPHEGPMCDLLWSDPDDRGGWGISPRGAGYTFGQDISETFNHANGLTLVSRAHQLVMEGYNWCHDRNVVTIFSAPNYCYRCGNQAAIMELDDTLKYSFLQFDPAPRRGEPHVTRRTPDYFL
UniProt Q7TQN4: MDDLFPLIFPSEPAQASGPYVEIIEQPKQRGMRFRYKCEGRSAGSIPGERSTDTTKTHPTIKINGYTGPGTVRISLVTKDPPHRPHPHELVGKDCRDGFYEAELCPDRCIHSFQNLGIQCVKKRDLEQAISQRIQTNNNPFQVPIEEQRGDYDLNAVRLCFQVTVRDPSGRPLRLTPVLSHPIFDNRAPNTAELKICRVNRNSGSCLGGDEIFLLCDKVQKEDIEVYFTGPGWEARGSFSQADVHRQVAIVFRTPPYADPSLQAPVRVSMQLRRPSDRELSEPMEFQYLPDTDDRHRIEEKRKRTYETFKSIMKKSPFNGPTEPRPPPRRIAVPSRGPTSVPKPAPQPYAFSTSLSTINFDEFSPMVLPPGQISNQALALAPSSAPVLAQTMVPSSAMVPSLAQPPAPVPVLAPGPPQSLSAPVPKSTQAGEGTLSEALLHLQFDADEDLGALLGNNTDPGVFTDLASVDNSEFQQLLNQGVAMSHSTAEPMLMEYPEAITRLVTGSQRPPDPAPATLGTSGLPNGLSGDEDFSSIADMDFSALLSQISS

Target: protein phosphatase 2A catalytic subunit (rat (endogenous in primary aortic VSMCs)) (UniProt P63331)
Assay: co-IP; extracts of rat VSMCs stimulated with LPS (50 μg/ml)/IFN-γ (100 U/ml) for 0-60 min, lysed in IP buffer, pre-cleared with protein A/G-agarose; immunoprecipitated with anti-PP2A-c antibody, blotted with anti-p65 antibody

binding: binds
Substance: NF-κB subunit p65 (from UniProt Q7TQN4 1-550)
